From patent US12383531B2, “PLA2 inhibitors for treatment of pathological conditions caused by hymenoptera envenomation, such as hemolysis, cerebral edema, and acute kidney injury” (Ophirex, Inc., priority 2016, dated 2025)
Some results were stated once for a whole list of compounds, not compound by compound.

Amino acid sequences for entries named in this document (tags omitted). Residues count along the entry.
UniProt P00630, 34-167 limits assumed: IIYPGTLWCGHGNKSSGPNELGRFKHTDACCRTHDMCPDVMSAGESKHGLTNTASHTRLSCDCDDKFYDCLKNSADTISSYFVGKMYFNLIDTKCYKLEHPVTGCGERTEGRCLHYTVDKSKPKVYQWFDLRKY

Target: bee venom sPLA2 (Apis mellifera, UniProt P00630)
Type: biochemical

Structure (SMILES)	IC50 against bee venom PLA2 higher as compared to snake venom PLA2
NC(=O)c1ccc(Cc2ccccc2)cc1-c1cccc(CCC(=O)O)c1 [Compound 4, 3-(5′-Benzyl-2′-carbamoylbiphenyl-3-yl) propanoic acid]	> 100,000 times
CCc1c(C(=O)C(N)=O)c2c(OCC(=O)OC)cccc2n1Cc1ccccc1 [Me-Varespladib]	> 100,000 times
